Test results: paper PMC12440071
No constants are given. Whether binding was seen depends on the method and setting. In cells and extracts the contact can be indirect. A result given as binding can be weak or reduced; the word gives no strength.

Amino acid sequences for entries named in this document (tags omitted). A change or cut given only in a name is not applied to a line headed by its entry.
UniProt P26196: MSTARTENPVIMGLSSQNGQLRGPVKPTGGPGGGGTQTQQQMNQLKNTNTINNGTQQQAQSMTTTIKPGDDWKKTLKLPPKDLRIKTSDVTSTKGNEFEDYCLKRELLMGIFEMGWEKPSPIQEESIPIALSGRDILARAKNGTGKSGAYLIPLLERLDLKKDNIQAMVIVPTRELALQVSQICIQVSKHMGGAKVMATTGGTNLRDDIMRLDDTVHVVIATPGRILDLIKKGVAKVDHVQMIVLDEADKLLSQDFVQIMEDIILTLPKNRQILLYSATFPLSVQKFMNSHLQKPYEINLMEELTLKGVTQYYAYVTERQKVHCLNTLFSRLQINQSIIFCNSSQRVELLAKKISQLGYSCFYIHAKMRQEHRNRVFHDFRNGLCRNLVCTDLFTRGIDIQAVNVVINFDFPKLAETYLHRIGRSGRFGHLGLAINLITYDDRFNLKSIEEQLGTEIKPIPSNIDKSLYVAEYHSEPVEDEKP
UniProt Q13283: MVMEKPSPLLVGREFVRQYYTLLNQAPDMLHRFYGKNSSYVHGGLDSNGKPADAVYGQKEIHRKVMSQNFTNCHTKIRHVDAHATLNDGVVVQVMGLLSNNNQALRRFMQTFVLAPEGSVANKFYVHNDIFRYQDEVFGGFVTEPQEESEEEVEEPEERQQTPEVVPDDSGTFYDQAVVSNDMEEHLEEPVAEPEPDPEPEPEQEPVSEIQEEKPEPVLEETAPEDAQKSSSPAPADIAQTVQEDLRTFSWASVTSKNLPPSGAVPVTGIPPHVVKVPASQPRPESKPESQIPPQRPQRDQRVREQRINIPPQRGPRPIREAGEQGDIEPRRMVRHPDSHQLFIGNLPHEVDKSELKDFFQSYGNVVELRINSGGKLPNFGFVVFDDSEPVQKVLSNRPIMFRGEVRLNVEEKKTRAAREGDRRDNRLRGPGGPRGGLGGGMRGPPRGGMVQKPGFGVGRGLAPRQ
UniProt P07339: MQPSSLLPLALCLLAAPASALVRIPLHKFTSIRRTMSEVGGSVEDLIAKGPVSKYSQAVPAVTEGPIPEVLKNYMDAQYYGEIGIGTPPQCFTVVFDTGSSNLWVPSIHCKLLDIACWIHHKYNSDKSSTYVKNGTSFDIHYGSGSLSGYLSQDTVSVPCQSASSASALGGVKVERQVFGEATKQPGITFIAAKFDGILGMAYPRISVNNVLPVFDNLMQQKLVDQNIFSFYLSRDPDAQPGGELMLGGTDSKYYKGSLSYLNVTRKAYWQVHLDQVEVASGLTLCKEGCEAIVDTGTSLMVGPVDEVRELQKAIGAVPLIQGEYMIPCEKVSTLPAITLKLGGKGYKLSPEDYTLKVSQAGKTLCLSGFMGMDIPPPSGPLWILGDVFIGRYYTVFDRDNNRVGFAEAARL

Assays:
[1] = biological target: HA-DDX6 (DEAD-Box Helicase 6) (UniProt P26196); assay: co-IP; HEK293T cells transfected with HA control or HA-DDX6/G3BP1, treated with 1 mM LLOMe for 1 h or 30 min followed by a 30 min recovery; lysates immunoprecipitated with anti-HA antibody and immunoblotted
HA-G3BP1 = HA-G3BP1 (UniProt Q13283); assay: as above

binding [1]: binds | binding (HA-G3BP1): binds
Substance: Cathepsin D (from UniProt P07339) (enzyme)
